Test results published in paper doi:10.1101/2025.06.10.658980, “Structures reveal how the Cas1-2/3 integrase captures, delivers, and integrates foreign DNA into CRISPR loci” (bioRxiv, 2025).
No constants are given. Whether binding was seen depends on the method and setting. For some assays here: Binding seen in cells or lysates may run through a third protein. Some results given as binding are weak or reduced against the parent protein; the word gives no strength. For some assays here: Where a sequence is shown, tags or fusion partners need not be part of it.

B1: Cas2/3 fusion protein (type I-F, Pseudomonas aeruginosa PA14), untagged (enzyme)
chain: MNILLVSQCEKRALSETRRILDQFAERRGERTWQTPITQAGLDTLRRLLKKSARRNTAVACHWIRGRDHSELLWIVGDASRFNAQGAVPTNRTCRDILRKEDENDWHSAEDIRLLTVMAALFHDIGKASQAFQAKLRNRGKPMADAYRHEWVSLRLFEAFVGPGSSDEDWLRRLADKRETGDAWLSQLARDDRQSAPPGPFQKSRLPPLAQAVGWLIVSHHRLPNGDHRGSASLARLPAPIQSQWCGARDADAKEKAACWQFPHGLPFASAHWRARTALCAQSMLERPGLLARGPALLHDSYVMHVSRLILMLADHHYSSLPADSRLGDPNFPLHANTDRDSGKLKQRLDEHLLGVALHSRKLAGTLPRLERQLPRLARHKGFTRRVEQPRFRWQDKAYDCAMACREQAMEHGFFGLNLASTGCGKTLANGRILYALADPQRGARFSIALGLRSLTLQTGQAYRERLGLGDDDLAILVGGSAARELFEKQQERLERSGSESAQELLAENSHVHFAGTLEDGPLREWLGRNSAGNRLLQAPILACTIDHLMPASESLRGGHQIAPLLRLMTSDLVLDEVDDFDIDDLPALSRLVHWAGLFGSRVLLSSATLPPALVQGLFEAYRSGREIFQRHRGAPGRATEIRCAWFDEFSSQSSAHGAVTSFSEAHATFVAQRLAKLEQLPPRRQAQLCTVHAAGEARPALCRELAGQMNTWMADLHRCHHTEHQGRRISFGLLRLANIEPLIELAQAILAQGAPEGLHVHLCVYHSRHPLLVRSAIERQLDELLKRSDDDAAALFARPTLAKALQASTERDHLFVVLASPVAEVGRDHDYDWAIVEPSSMRSIIQLAGRIRRHRSGFSGEANLYLLSRNIRSLEGQNPAFQRPGFETPDFPLDSHDLHDLLDPALLARIDASPRIVEPFPLFPRSRLVDLEHRRLRALMLADDPPSSLLGVPLWWQTPASLSGALQTSQPFRAGAKERCYALLPDEDDEERLHFSRYEEGTWSNQDNLLRNLDLTYGPRIQTWGTVNYREELVAMAGREDLDLRQCAMRYGEVRLRENTQGWSYHPYLGFKKYN
notes: Two Cas2/3 subunits stand in the Cas1-2/3 heterohexamer, joined through the Cas2 homodimer; also called Cas3; Cas3a; source: E. coli BL21(DE3), co-expressed with StrepII-Cas1 from a single plasmid; in lysate, and purified with Cas1 (StrepTrap HP, Superdex 200)
B2: Integration Host Factor subunit beta (IHFβ), Pseudomonas aeruginosa (protein, UniProt Q51473 1-94)
chain: MTKSELIERIVTHQGQLSAKDVELAIKTMLEQMSQALATGDRIEIRGFGSFSLHYRAPRVGRNPKTGESVRLDGKFVPHFKPGKELRDRVNEPE

Assays:
[1] = biological target: T1, Cas1 (type I-F, Pseudomonas aeruginosa PA14), StrepII-tagged (Pseudomonas aeruginosa PA14) (UniProt Q02ML7); test: cryo-EM structure; Cas1-2/3 delivery complex bound to a foreign DNA fragment with a 3' GG PAM, purified by SEC (Superdex 200; 20 mM Tris-HCl pH 7.5, 200 mM monopotassium glutamate, 5 mM EDTA, 1 mM TCEP, 2% glycerol), 3.31 Å; both purified
T1 sequence: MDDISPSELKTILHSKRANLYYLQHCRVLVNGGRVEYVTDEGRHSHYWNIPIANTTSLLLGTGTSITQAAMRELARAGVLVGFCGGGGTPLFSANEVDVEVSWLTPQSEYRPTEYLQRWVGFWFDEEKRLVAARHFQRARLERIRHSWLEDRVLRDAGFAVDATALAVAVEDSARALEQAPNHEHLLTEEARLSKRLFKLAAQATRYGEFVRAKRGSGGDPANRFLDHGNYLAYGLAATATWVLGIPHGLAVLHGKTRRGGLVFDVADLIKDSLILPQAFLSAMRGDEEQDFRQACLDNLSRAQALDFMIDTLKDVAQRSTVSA

[2] = biological target: T1, Cas1 (type I-F, Pseudomonas aeruginosa PA14), StrepII-tagged (Pseudomonas aeruginosa PA14); test: cryo-EM structure; Cas1-2/3 capture complex without nucleic acid, 12.8 uM, 3.3 Å; both purified
[3] = biological target: T1, Cas1 (type I-F, Pseudomonas aeruginosa PA14), StrepII-tagged (Pseudomonas aeruginosa PA14); test: cryo-EM structure; Cas1-2/3 integration complexes with foreign DNA (with or without PAM), IHF and a 200 bp CRISPR leader-repeat-spacer DNA, purified on Superose 6; five maps of 3.8-4 Å, no atomic model; both purified
[4] = biological target: T1, Cas1 (type I-F, Pseudomonas aeruginosa PA14), StrepII-tagged (Pseudomonas aeruginosa PA14); test: pull-down; StrepII-Cas1 and untagged Cas2/3 co-expressed in E. coli BL21(DE3); clarified lysate over StrepTrap HP, eluted with 3 mM desthiobiotin; 50 mM HEPES pH 7.5, 500 mM KCl, 10% glycerol, 1 mM DTT
[5] = biological target: T2, Integration Host Factor subunit alpha (IHFα), Pseudomonas aeruginosa (P. aeruginosa) (UniProt Q51472); test: co-purification (HisTrap, heparin, SEC); 6xHis-IHFα and StrepII-IHFβ co-expressed in E. coli BL21(DE3); captured on HisTrap HP, tags cleaved, untagged heterodimer purified on Heparin Sepharose and Superdex 75 (25 mM HEPES-NaOH pH 7.5, 200 mM NaCl, 5% glycerol)
T2 sequence: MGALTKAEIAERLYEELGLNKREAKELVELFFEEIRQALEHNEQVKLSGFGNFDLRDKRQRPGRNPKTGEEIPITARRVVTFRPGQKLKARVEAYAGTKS

Row | Binder | binding [1] | binding [2] | binding [3] | binding [4] | binding [5]
1 | B1 | binds | binds | binds | binds | 
2 | B2 |  |  |  |  | binds
